Data published in the supplement of paper PMC8920030.
This continues a long series; more values of the same kind are listed elsewhere. Where a SMILES comes first, the peptide text is derived from it. Bridges are numbered along the chain shown (N, C = ends). [ ]: non-standard residue; d: D form. The star is where a group is joined. Heptanoyl(5-Me) = CCC(C)CCCC(=O)*; Dab = NCC[C@H](N)C(=O)O

Experiments:
Conditions in all cases: growth mode: biofilm, 24 h; exposure time: 24 h
tobramycin [1] = compound: T1, NC[C@H]1O[C@H](O[C@H]2[C@H](O)[C@@H](O[C@H]3O[C@H](CO)[C@@H](O)[C@H](N)[C@H]3O)[C@H](N)C[C@@H]2N)[C@H](N)C[C@@H]1O [tobramycin]; experiment: minimum concentration of killing, 1-log CFU reduction of biofilm (MCK90); higher = more biofilm tolerance
Method: (§1)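 Clinical P. aeruginosa isolates were grown as static biofilms for 24 h at 37 °C in LB in half-area 96-well plates, then exposed for 24 h to tobramycin at 1, 4, 16, 64, 256 or […]. Surviving CFU were counted by spotting serial dilutions. MCK is the lowest tested concentration giving the stated log reduction in CFU versus an untreated control; '>1024' means the reduction was not reached at the top dose, and 1 is the lowest dose tested (≤1).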

tobramycin [2] = compound: T1, tobramycin; experiment: minimum concentration eradicating biofilm below detection limit (MCK-E); higher = more biofilm tolerance
Method: as §1

colistin [3] = compound: T2, CCC(C)CCCC(=O)N[C@@H](CCN)C(=O)N[C@H](C(=O)N[C@@H](CCN)C(=O)N[C@H]1CCNC(=O)[C@H]([C@@H](C)O)NC(=O)[C@H](CCN)NC(=O)[C@H](CCN)NC(=O)[C@H](CC(C)C)NC(=O)[C@@H](CC(C)C)NC(=O)[C@H](CCN)NC1=O)[C@@H](C)O [colistin]; experiment: minimum concentration of killing, 4-log CFU reduction of biofilm (MCK99.99); higher = more biofilm tolerance
Method: as §1, with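 “colistin” for “tobramycin”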

tobramycin [4] = compound: T1, tobramycin; experiment: minimum concentration of killing, 2-log CFU reduction of biofilm (MCK99); higher = more biofilm tolerance
Method: as §1

tobramycin [5] = compound: T1, tobramycin; experiment: minimum concentration of killing, 4-log CFU reduction of biofilm (MCK99.99); higher = more biofilm tolerance
Method: as §1

colistin [6] = compound: T2, colistin; experiment: minimum concentration of killing, 1-log CFU reduction of biofilm (MCK90); higher = more biofilm tolerance
Method: as §1, with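 “colistin” for “tobramycin”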

colistin [7] = compound: T2, colistin; experiment: minimum concentration of killing, 2-log CFU reduction of biofilm (MCK99); higher = more biofilm tolerance
Method: as §1, with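 “colistin” for “tobramycin”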

colistin [8] = compound: T2, colistin; experiment: minimum concentration eradicating biofilm below detection limit (MCK-E); higher = more biofilm tolerance
Method: as §1, with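 “colistin” for “tobramycin”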

Test System | minimum concentration of killing (tobramycin [1]) [µg/mL] | minimum concentration eradicating biofilm below detection limit (tobramycin [2]) [µg/mL] | minimum concentration of killing (colistin [3]) [µg/mL] | minimum concentration of killing (tobramycin [4]) [µg/mL] | minimum concentration of killing (tobramycin [5]) [µg/mL] | minimum concentration of killing (colistin [6]) [µg/mL] | minimum concentration of killing (colistin [7]) [µg/mL] | minimum concentration eradicating biofilm below detection limit (colistin [8]) [µg/mL]
Pseudomonas aeruginosa clinical isolate CH4780 | 16 | 1020 | 64 | 16 | 256 | 64 | 64 | 64
Pseudomonas aeruginosa clinical isolate CH4785 | ≤ 1 | 1020 | 256 | 64 | 256 | 256 | 256 | 256
Pseudomonas aeruginosa clinical isolate CH4786 | 4 | 64 | 256 | 4 | 4 | 256 | 256 | 256
Pseudomonas aeruginosa clinical isolate CH4840 | 4 | 256 | 256 | 4 | 64 | 64 | 256 | 256
Pseudomonas aeruginosa clinical isolate CH4860 | 16 | 64 | 256 | 16 | 64 | 64 | 64 | 256
Pseudomonas aeruginosa clinical isolate CH4878 | 4 | 256 | 256 | 16 | 256 | 64 | 256 | 256
Pseudomonas aeruginosa clinical isolate CH4891 | 4 | 1020 | 256 | 4 | 1020 | 256 | 256 | 256
Pseudomonas aeruginosa clinical isolate CH4914 | ≤ 1 | 256 | 64 | ≤ 1 | 256 | 4 | 64 | 256
Pseudomonas aeruginosa clinical isolate CH4916 | 256 | 1020 | 256 | 256 | 1020 | 256 | 256 | 256
Pseudomonas aeruginosa clinical isolate CH4990 | 4 | 256 | 256 | 16 | 64 | 256 | 256 | 256
Pseudomonas aeruginosa clinical isolate CH4992 | 16 | 256 | 256 | 64 | 64 | 256 | 256 | 256
Pseudomonas aeruginosa clinical isolate CH5052 | 256 | > 1020 | 256 | 256 | 1020 | 64 | 256 | 256
Pseudomonas aeruginosa clinical isolate CH5066 | ≤ 1 | 1020 | 256 | 16 | 1020 | 256 | 256 | 256
Pseudomonas aeruginosa clinical isolate CH5182 | 4 | 256 | 256 | 4 | 256 | 256 | 256 | 256
Pseudomonas aeruginosa clinical isolate CH5206 | 4 | 64 | 256 | 4 | 64 | 256 | 256 | 256
Pseudomonas aeruginosa clinical isolate CH5262 | 16 | 256 | 256 | 16 | 64 | 64 | 64 | 256
Pseudomonas aeruginosa clinical isolate CH5267 | ≤ 1 | > 1020 | 256 | 16 | 256 | 4 | 256 | 256
Pseudomonas aeruginosa clinical isolate CH5334 | 4 | 1020 | 256 | 64 | 256 | 256 | 256 | 256
Pseudomonas aeruginosa clinical isolate CH5362 | ≤ 1 | 1020 | 256 | 4 | 256 | 256 | 256 | 256
Pseudomonas aeruginosa clinical isolate CH5387 | 16 | 256 | 256 | 16 | 64 | 64 | 64 | 256
Pseudomonas aeruginosa clinical isolate CH5432 | 16 | > 1020 | 256 | 1020 | > 1020 | 64 | 64 | 1020

Test System | minimum concentration of killing (tobramycin [1]) [µg/mL] | minimum concentration eradicating biofilm below detection limit (tobramycin [2]) [µg/mL] | minimum concentration of killing (colistin [3]) [µg/mL] | minimum concentration of killing (tobramycin [4]) [µg/mL] | minimum concentration of killing (tobramycin [5]) [µg/mL] | minimum concentration of killing (colistin [6]) [µg/mL] | minimum concentration of killing (colistin [7]) [µg/mL] | minimum concentration eradicating biofilm below detection limit (colistin [8]) [µg/mL]
Pseudomonas aeruginosa clinical isolate CH5462 | 16 | 256 | 256 | 16 | 256 | 256 | 256 | 256
Pseudomonas aeruginosa clinical isolate CH5478 | 64 | 1020 | 256 | 256 | 1020 | 256 | 256 | 256
Pseudomonas aeruginosa clinical isolate CH5528 | 64 | 1020 | 64 | 64 | 1020 | 64 | 64 | 256
Pseudomonas aeruginosa clinical isolate F2084 | 16 | > 1020 | 1020 | 64 | 1020 | 256 | 256 | > 1020
Pseudomonas aeruginosa clinical isolate F2093 | 4 | 256 | 256 | 64 | 64 | 64 | 256 | 256
Pseudomonas aeruginosa clinical isolate F2119 | 64 | > 1020 | 1020 | 256 | > 1020 | 16 | 64 | 1020
Pseudomonas aeruginosa clinical isolate F2128 | 64 | 64 | 256 | 64 | 64 | 256 | 256 | 256
Pseudomonas aeruginosa clinical isolate F2137 | ≤ 1 | 256 | 256 | ≤ 1 | 16 | 64 | 64 | 256
Pseudomonas aeruginosa clinical isolate F2148 | ≤ 1 | 256 | 256 | 4 | 4 | 64 | 64 | 256
Pseudomonas aeruginosa clinical isolate F2160 | ≤ 1 | 1020 | 64 | ≤ 1 | 1020 | 64 | 64 | 64
Pseudomonas aeruginosa clinical isolate F2165 | ≤ 1 | 64 | 256 | 4 | 4 | 256 | 256 | 256
Pseudomonas aeruginosa clinical isolate F2166 | ≤ 1 | 16 | 256 | 4 | 4 | 256 | 256 | 256
Pseudomonas aeruginosa clinical isolate F2172 | 4 | 1020 | 64 | 16 | 1020 | 16 | 64 | 256
Pseudomonas aeruginosa clinical isolate F2205 | 16 | > 1020 | 256 | 64 | 1020 | 64 | 256 | 256
Pseudomonas aeruginosa clinical isolate F2224 | 64 | > 1020 | 256 | 256 | 1020 | 64 | 64 | 256
Pseudomonas aeruginosa clinical isolate F2229 | 4 | 1020 | 256 | 256 | 1020 | 16 | 64 | 256
Pseudomonas aeruginosa clinical isolate F2230 | 16 | 64 | 256 | 16 | 64 | 64 | 256 | 1020
Pseudomonas aeruginosa clinical isolate F2234 | 4 | 256 | 256 | 16 | 256 | 64 | 256 | 256
Pseudomonas aeruginosa clinical isolate F2235 | 256 | > 1020 | 256 | 1020 | > 1020 | 256 | 256 | 256
Pseudomonas aeruginosa clinical isolate F2236 | ≤ 1 | 256 | 256 | 4 | 256 | 64 | 256 | 256
